Assay [1] has as its target Kelch-like ECH-associated protein (Keap1) (mouse (endogenous in mouse heart tissue and HL-1 cardiomyocytes)) (UniProt Q9Z2X8). Nature of the assay: co-IP; lysates of heart tissue of WT, db/db and NaHS-treated db/db mice; 320 ug protein, antibody 10 ug/500 ug protein, protein A/G magnetic beads overnight at 4 °C, washed three times with lysis buffer, western blot.
Assay [2] has the same target. Nature of the assay: co-IP; lysates of HL-1 cardiomyocytes transfected with empty plasmid or Syvn1 C115A adenovirus, treated with HG + PA and NaHS; protein A/G magnetic beads overnight at 4 °C, western blot. A general note: In western blotting, separated proteins are transferred to a membrane and probed.

Protein sequences, listed by entry. Tags and fused reporters are not part of them. Lines headed by an entry give the natural chain unless they say otherwise; changes in a name come on top.
UniProt Q9Z2X8: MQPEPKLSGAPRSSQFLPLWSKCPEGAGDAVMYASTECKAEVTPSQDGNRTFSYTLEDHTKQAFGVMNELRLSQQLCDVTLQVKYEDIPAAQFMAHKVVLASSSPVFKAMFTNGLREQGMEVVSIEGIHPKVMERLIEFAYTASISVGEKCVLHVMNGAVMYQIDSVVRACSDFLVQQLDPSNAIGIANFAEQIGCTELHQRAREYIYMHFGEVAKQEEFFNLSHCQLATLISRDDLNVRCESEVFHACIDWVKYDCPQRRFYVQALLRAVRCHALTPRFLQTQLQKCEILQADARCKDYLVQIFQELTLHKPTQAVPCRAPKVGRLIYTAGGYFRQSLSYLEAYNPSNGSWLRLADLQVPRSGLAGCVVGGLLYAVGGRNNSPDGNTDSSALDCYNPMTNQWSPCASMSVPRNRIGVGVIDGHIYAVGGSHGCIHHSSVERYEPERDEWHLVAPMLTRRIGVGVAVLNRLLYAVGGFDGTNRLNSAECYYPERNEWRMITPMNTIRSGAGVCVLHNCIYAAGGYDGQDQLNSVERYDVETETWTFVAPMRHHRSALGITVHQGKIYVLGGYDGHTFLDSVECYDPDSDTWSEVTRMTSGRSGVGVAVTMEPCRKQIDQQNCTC
UniProt Q9DBY1: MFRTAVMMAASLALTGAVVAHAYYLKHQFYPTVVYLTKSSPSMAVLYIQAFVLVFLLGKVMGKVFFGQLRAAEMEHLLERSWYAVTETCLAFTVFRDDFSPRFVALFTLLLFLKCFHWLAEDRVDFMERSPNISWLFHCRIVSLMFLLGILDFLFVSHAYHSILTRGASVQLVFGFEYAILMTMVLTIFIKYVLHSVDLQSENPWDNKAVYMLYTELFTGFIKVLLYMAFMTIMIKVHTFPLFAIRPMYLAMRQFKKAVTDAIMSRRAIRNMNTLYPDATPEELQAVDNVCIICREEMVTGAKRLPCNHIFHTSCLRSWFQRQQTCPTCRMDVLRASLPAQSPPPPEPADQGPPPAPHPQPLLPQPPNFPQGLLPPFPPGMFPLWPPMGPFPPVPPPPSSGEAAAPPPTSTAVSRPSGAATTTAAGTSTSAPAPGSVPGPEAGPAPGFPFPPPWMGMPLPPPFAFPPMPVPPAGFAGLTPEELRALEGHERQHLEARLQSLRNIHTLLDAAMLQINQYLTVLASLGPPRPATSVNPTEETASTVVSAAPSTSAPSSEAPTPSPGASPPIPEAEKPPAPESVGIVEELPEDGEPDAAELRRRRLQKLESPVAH

No constants are given. Whether binding was seen depends on the method and setting. Binding seen in cells or lysates may run through a third protein. Some results given as binding are weak or reduced against the parent protein; the word gives no strength.

“synoviolin (Syvn1) (from UniProt Q9DBY1 1-612)”: the binding result in assay [1] and in assay [2] was “binds” in each case.

As for Syvn1 C115A (from UniProt Q9DBY1 1-612), in assay [2], the binding entry was “binds”.

Source of the values: publication PMC10598017.
